Drawing on patent CN115368461A, this text covers binding for two molecules.

No constants are given. Whether binding was seen depends on the method and setting. Some results given as binding are weak or reduced against the parent protein; the word gives no strength.

This test deals with 猴TROP2-his (CynoTROP2-His), ACRO TR2-R52H3 (cynomolgus monkey (食蟹猴)). Nature of the test: ForteBio Octet BLI; antibody on Protein A sensor, 100nM antigen. In general terms: Biolayer interferometry detects binding as a change in optical thickness at a sensor tip.

B1: mAb53 (antibody, V domains shown)
VH: QVQLQQPGAELVKPGASVKMSCKASGYTFTSYWITWVKQRPGQGLEWIGNIHPGSSTTNYNEKFKSKATLTVHTSSSTVYMQLTSLTSEDSAVYYCAREVGDYWGQGTSVTVSS
VL: DILLTQSPAILSVSPGERASFSCRASQIIGTSIHWYQQRTNGSPRLLIKYVSESISGIPSRFSGSGSGTDFTLSINSVESEDIADYYCQQSHSWPFTFGGGTKL
With B1, the binding result is on record as “binds”.

B2: mAb29 (antibody, V domains shown)
VH: EVKLVESGGDLVQPGGSLKLSCAASGFSFSDYYMYWVRQTPEKRLEWVANIDNGGDTTYYPDTVKGRFTISRDNAKNTLYLQMSRLKSEDTAMYYCARHDPLTGPPFFAMDYWGQGTSVTVSS
VL: DIQMTQSPSSLSASLGGKVTISCKASQGINQYIAWYQLKPGKGPRLLIHYTSTLQPGVPSRFSGSGSGRDYSFSISNLEPEDIASYYCLQYDNLWTFGGGTKLEIK
As for B2, the binding entry is on record as “binds”.
